Kd and IC50 data for 1 compound are collected here from ChEMBL document CHEMBL5154710, “Discovery of small molecules interacting at lactate dehydrogenases tetrameric interface using a biophysical screening cascade” (Eur J Med Chem, 2022).

Experiment [1] in a line: Stabilization of Red-dye-NHS fluorescent-labeled human LDH-Htr expressed in Escherichia coli assessed as dissociation constant by MST assay.
Experiment [2] can be described thus: Destabilization of Red-dye-NHS fluorescent-labeled human LDH-5 expressed in Escherichia coli assessed as dissociation constant by MST assay.
Experiment [3] can be described thus: Destabilization of Red-dye-NHS fluorescent-labeled human LDH-1 expressed in Escherichia coli assessed as dissociation constant by MST assay.
Experiment [4] can be described thus: Inhibition of LDH-5 (unknown origin) assessed as denaturation of LDH-5 using NADH and pyruvate as substrate by spectrophotometric analysis. Further details: species or system Homo sapiens.

With `CNCCCC12CCC(c3ccccc31)c1ccccc12` [MAPROTILINE], the dissociation constant Kd (as a rule, the constant that tells how readily two partners part at equilibrium) in experiment [1] stood at 37 µM; in experiment [2] it was 205 µM; in experiment [3] it was 150 µM. Further, the IC50 (in general, the point on the concentration scale where inhibition reaches its midpoint) in experiment [4] is 970 µM.
